Experimental data reported in paper PMC12374970.
These are yes or no findings as the source states them, for the method shown. In cells and extracts the contact can be indirect.

The chains behind the UniProt entries cited, without tags or fusion partners.
UniProt Q9UPY3: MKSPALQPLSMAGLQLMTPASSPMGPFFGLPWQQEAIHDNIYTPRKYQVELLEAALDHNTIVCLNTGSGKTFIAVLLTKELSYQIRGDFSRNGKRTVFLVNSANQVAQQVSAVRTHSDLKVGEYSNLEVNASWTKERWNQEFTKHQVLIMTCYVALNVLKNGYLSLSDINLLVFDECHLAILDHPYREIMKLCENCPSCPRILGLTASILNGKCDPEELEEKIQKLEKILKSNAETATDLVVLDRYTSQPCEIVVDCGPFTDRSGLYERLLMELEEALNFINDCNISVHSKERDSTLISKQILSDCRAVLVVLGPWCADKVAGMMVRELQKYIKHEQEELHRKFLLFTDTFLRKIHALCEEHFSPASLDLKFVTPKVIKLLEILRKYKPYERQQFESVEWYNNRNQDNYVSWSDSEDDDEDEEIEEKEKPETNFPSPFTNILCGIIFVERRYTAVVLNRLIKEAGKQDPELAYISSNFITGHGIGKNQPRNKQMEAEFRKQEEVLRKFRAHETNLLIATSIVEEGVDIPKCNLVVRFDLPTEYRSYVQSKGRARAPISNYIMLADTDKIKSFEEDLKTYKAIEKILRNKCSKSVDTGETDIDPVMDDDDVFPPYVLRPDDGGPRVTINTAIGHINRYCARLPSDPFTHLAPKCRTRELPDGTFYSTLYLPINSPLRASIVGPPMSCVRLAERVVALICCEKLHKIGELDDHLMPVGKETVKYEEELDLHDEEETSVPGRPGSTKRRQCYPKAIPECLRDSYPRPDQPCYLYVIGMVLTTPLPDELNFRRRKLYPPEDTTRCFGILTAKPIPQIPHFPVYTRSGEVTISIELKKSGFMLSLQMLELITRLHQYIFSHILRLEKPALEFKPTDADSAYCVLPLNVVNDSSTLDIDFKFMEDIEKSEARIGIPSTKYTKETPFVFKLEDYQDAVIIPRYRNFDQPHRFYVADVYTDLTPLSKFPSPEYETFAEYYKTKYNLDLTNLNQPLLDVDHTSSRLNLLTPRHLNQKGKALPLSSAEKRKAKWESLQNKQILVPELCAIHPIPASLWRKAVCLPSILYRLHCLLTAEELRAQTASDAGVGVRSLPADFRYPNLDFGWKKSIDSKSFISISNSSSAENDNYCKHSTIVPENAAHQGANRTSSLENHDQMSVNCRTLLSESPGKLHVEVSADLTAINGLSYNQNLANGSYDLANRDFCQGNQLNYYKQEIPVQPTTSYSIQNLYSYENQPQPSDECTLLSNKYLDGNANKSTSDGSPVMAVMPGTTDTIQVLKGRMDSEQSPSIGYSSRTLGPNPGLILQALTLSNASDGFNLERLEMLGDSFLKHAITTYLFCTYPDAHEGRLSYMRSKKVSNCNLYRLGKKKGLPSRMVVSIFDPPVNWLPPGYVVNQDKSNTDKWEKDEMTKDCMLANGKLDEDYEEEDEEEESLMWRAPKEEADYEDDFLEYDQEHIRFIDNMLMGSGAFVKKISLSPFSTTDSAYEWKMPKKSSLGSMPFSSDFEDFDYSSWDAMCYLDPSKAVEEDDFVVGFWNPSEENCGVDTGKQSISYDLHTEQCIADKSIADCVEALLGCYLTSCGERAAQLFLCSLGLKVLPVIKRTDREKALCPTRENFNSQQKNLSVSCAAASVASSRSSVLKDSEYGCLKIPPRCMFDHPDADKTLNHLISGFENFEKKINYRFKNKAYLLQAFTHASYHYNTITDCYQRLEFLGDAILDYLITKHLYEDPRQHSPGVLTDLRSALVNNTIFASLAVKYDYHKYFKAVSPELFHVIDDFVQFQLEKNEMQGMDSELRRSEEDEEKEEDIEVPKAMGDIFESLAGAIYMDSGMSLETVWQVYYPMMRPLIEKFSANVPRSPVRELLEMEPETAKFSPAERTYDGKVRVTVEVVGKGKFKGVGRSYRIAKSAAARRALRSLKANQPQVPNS

Molecular target: DICER (endogenous, U2OS cells) (human (endogenous in U2OS)) (UniProt Q9UPY3)
Assay: proximity ligation; Duolink In Situ PLA with antibodies to the endogenous proteins in fixed, permeabilised cells (U2OS); untreated, +IR (10 Gy, 15 min) or +4OHT; also with DRB, triptolide or post-fixation RNase digestion

binding: no binding
B1: DNMT2 (enzyme, UniProt O14717 1-391)
chain: MEPLRVLELYSGVGGMHHALRESCIPAQVVAAIDVNTVANEVYKYNFPHTQLLAKTIEGITLEEFDRLSFDMILMSPPCQPFTRIGRQGDMTDSRTNSFLHILDILPRLQKLPKYILLENVKGFEVSSTRDLLIQTIENCGFQYQEFLLSPTSLGIPNSRLRYFLIAKLQSEPLPFQAPGQVLMEFPKIESVHPQKYAMDVENKIQEKNVEPNISFDGSIQCSGKDAILFKLETAEEIHRKNQQDSDLSVKMLKDFLEDDTDVNQYLLPPKSLLRYALLLDIVQPTCRRSVCFTKGYGSYIEGTGSVLQTAEDVQVENIYKSLTNLSQEEQITKLLILKLRYFTPKEIANLLGFPPEFGFPEKITVKQRYRLLGNSLNVHVVAKLIKILYE
